Test results taken from US20180371433A1 (UNIVERSITY OF FLORIDA RESEARCH FOUNDATION, published 2018).
Results are given in words; binding and its absence hold for the method and conditions named. Binding seen in cells or lysates may run through a third protein. Some entries that bind do so weakly or less than the wild type. Tags and fused reporters may be left off the sequences shown.

Biological target: T1, genome-encoded HvPPA (Haloferax volcanii) (UniProt D4GT97)
T1 sequence: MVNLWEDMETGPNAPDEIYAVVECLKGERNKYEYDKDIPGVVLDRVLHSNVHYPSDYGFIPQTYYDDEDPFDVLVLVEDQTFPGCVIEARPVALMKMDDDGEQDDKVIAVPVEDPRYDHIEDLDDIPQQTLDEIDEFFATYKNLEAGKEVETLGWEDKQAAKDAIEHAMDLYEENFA
Assay: co-purification by Ni2+ IMAC and SEC, seen on SDS-PAGE

binding: binds
B1: HvPPA with an N-terminal poly-histidine tag (His6-HvPPA) linked with a thrombin-cleavage site (enzyme)
chain: MVNLWEDMETGPNAPDEIYAVVECLKGERNKYEYDKDIPGVVLDRVLHSNVHYPSDYGFIPQTYYDDEDPFDVLVLVEDQTFPGCVIEARPVALMKMDDDGEQDDKVIAVPVEDPRYDHIEDLDDIPQQTLDEIDEFFATYKNLEAGKEVETLGWEDKQAAKDAIEHAMDLYEENFA
notes: Expressed in Hfx. volcanii H26-pJAM2920; Purified by Ni2+ IMAC and SEC as homo-hexamers (~134 kDa) and homo-trimers (~64 kDa); also called HVO_0729; Haloferax volcanii inorganic pyrophosphatase; not shown: N-terminal His6 tag and thrombin-cleavage site from vector pJAM503
